Measurements as given in US4909940A, “Extraction of process chemicals from labile biological mixtures with organic alcohols or with halogenated hydrocarbons” (priority 1987, dated 1990).

What was measured:
[1] = Extraction of process chemicals from saline: TRITON X100; details: TRITON X45, X114, X100
[2] = Plasma filterability after extraction; details: 10% extractant; for Minimum Porosity of Filter which Provides a Flow Rate of 12 mL/minute: 30 minutes, ambient, untreated 3 micron

Row | Structure (SMILES) | extraction efficiency as hydrophilicity of the TRITON increases (in words) [1] | plasma filterability (in words) [2] | Minimum Porosity of Filter which Provides a Flow Rate of 12 mL/minute [2] [micron]
1 | CCCCCO [1-pentanol] | declined |  | 
2 | FC(F)OC(Cl)C(F)(F)F (stereo not drawn) [FORANE, 1-chloro-2,2,2-trifluoroethyl difluoromethyl ether] |  | improves the filterability of plasma | < 0.45
3 | CCCCCCC(C)O (stereo not drawn) [2-octanol] | declined | improves the filterability of plasma | < 1.2
